Laboratory results reported in PMC5016092.
No constants are given. Whether binding was seen depends on the method and setting. For part of these data: In cells and extracts the contact can be indirect. Some results given as binding are weak or reduced against the parent protein; the word gives no strength. Tags and fused reporters may be left off the sequences shown.

T1: hTim10b^3XFLAG (human) (UniProt Q9Y5J6)
T1 sequence: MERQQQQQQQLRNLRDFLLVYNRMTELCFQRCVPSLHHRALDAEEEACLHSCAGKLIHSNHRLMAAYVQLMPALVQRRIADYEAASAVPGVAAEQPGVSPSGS


Key:
[1] = biological target: T1, hTim10b^3XFLAG (human); test: cross-linking; isolated mitochondria with 0.2 mM DSP 1 hr 4°C, quenched with Tris, solubilised in 1% SDS and boiled, diluted in Triton X-100 buffer, anti-FLAG resin, cross-links cleaved in Laemmli buffer, immunoblotting
[2] = biological target: T1, hTim10b^3XFLAG (human); test: native gel or EMSA; antibody shift: [35S]-hTim22 imported at 37°C into isolated mitochondria, solubilised in 1% digitonin, incubated with anti-FLAG or anti-SDHA antibodies 30 min on ice, BN-PAGE and autoradiography

Row | Binder | binding [1] | binding [2]
1 | hTim9 (protein, UniProt Q9Y5J7 1-89) MAAQIPESDQIKQFKEFLGTYNKLTETCFLDCVKDFTTREVKPEETTCSEHCLQKYLKMTQRISMRFQEYHIQQNEALAAKAGLLGQPR | binds | 
2 | [^35S]-hTim22 (protein, UniProt Q9Y584 1-194, [35S]-methionine/cysteine label) MAAAAPNAGGSAPETAGSAEAPLQYSLLLQYLVGDKRQPRLLEPGSLGGIPSPAKSEEQKMIEKAMESCAFKAALACVGGFVLGGAFGVFTAGIDTNVGFDPKDPYRTPTAKEVLKDMGQRGMSYAKNFAIVGAMFSCTECLIESYRGTSDWKNSVISGCITGGAIGFRAGLKAGAIGCGGFAAFSAAIDYYLR |  | binds
3 | hTom40 (protein, UniProt O96008 1-361) MGNVLAASSPPAGPPPPPAPALVGLPPPPPSPPGFTLPPLGGSLGAGTSTSRSSERTPGAATASASGAAEDGACGCLPNPGTFEECHRKCKELFPIQMEGVKLTVNKGLSNHFQVNHTVALSTIGESNYHFGVTYVGTKQLSPTEAFPVLVGDMDNSGSLNAQVIHQLGPGLRSKMAIQTQQSKFVNWQVDGEYRGSDFTAAVTLGNPDVLVGSGILVAHYLQSITPCLALGGELVYHRRPGEEGTVMSLAGKYTLNNWLATVTLGQAGMHATYYHKASDQLQVGVEFEASTRMQDTSVSFGYQLDLPKANLLFKGSVDSNWIVGATLEKKLPPLPLTLALGAFLNHRKNKFQCGFGLTIG | no binding | 
